# From patent publication US20110305911A1, “ARTICLE HAVING ANTIFOULING PROPERTIES AND INTENDED TO BE USED IN AQUATIC APPLICATIONS, PARTICULARLY MARINE APPLICATIONS” (BLUESTAR SILICONES FRANCE, priority 2008, published 2011)
# Experiment: Catalyst activity test: crosslinking of α,ω-dihydroxylated oil with ethyl silicate
# Conditions: after 24 h; 4.48 g 48V100 oil, 1.24 mmol catalyst, 0.52 g ethyl silicate
row,Compound,Hard/liquid after 24 h
1,"CC(C)(C)C(=O)C=C([O-])C(C)(C)C.CC(C)(C)C(=O)C=C([O-])C(C)(C)C.[Zn+2] [Catalyst (3), Zn(DPM)2]",hard
2,"CCOC(=O)C=C(C)[O][Zn][O]C(C)=CC(=O)OCC [Catalyst (4), [Zn (EAA)2]]",hard
3,"CC(=O)C=C(C)[O-].CC(=O)C=C(C)[O-].O.[Zn+2] [Comparative 2, zinc diacetylacetonate, reference compound]",hard
4,[Zn (isopropyl aceto-acetato)2] [Catalyst (5)],hard
5,"tetrabutyldistannoxane dilaurate [Comparative 1, reference compound]",hard

# Same assay, conditions: corresponds to viscosity of approx. 1000 cP; 4.48 g 48V100 oil, 1.24 mmol catalyst, 0.52 g ethyl silicate, 300 rpm
row,Compound,Time when stirring stops
1,"CCCCC(CC)C(=O)[O-].CCCCC(CC)C(=O)[O-].[Zn+2] (stereo not drawn) [Comparative 3, Zn(2-ethylhexanoate)2, reference compound]",30 h
